Measured values taken from patent US6011135A, “Triazine thiol derivative having a perfluoro group, method for producing same and use of same” (Iwate University, priority 1997, dated 2000).

assay: Dipping treatment of metals: contact angle of water, iron; settings: Na salt 1×10^-3 mol/L in water, 70° C., 30 minutes

Structure (SMILES) | Contact angle [°]
FC(F)(F)C(F)(F)C(F)(F)C(F)(F)C(F)(F)C(F)(F)C(F)(F)c1ccc(Nc2nc(S)nc(S)n2)cc1 [Comparative example, reference compound] | 90
CCCCN(CC(F)(F)C(F)(F)C(F)(F)C(F)(F)C(F)(F)C(F)(F)C(F)(F)F)c1nc(S)nc(S)n1 [Example 20] | 114
FC(F)(F)C(F)(F)C(F)(F)C(F)(F)C(F)(F)C(F)(F)C(F)(F)CN(c1nc(S)nc(S)n1)C1CCCCC1 [Example 21] | 116
FC(F)(F)C(F)(F)C(F)(F)C(F)(F)C(F)(F)C(F)(F)CNc1nc(S)nc(S)n1 [Example 19] | 113
CCCCN(CC(F)(F)C(F)(F)C(F)(F)C(F)(F)C(F)(F)C(F)(F)C(F)(F)C(F)(F)C(F)(F)C(F)(F)F)c1nc(S)nc(S)n1 [Example 22] | 112

assay: Dipping treatment of metals: contact angle of water, copper; settings: Na salt 1×10^-3 mol/L in water, 70° C., 30 minutes

Structure (SMILES) | Contact angle [°]
FC(F)(F)C(F)(F)C(F)(F)C(F)(F)C(F)(F)C(F)(F)C(F)(F)c1ccc(Nc2nc(S)nc(S)n2)cc1 [Comparative example, reference compound] | 114
CCCCN(CC(F)(F)C(F)(F)C(F)(F)C(F)(F)C(F)(F)C(F)(F)C(F)(F)F)c1nc(S)nc(S)n1 [Example 20] | 120
FC(F)(F)C(F)(F)C(F)(F)C(F)(F)C(F)(F)C(F)(F)C(F)(F)CN(c1nc(S)nc(S)n1)C1CCCCC1 [Example 21] | 121
FC(F)(F)C(F)(F)C(F)(F)C(F)(F)C(F)(F)C(F)(F)CNc1nc(S)nc(S)n1 [Example 19] | 121
CCCCN(CC(F)(F)C(F)(F)C(F)(F)C(F)(F)C(F)(F)C(F)(F)C(F)(F)C(F)(F)C(F)(F)C(F)(F)F)c1nc(S)nc(S)n1 [Example 22] | 120

assay: Dipping treatment of metals: contact angle of water, nickel; settings: Na salt 1×10^-3 mol/L in water, 70° C., 30 minutes

Structure (SMILES) | Contact angle [°]
FC(F)(F)C(F)(F)C(F)(F)C(F)(F)C(F)(F)C(F)(F)C(F)(F)c1ccc(Nc2nc(S)nc(S)n2)cc1 [Comparative example, reference compound] | 110
CCCCN(CC(F)(F)C(F)(F)C(F)(F)C(F)(F)C(F)(F)C(F)(F)C(F)(F)F)c1nc(S)nc(S)n1 [Example 20] | 119
FC(F)(F)C(F)(F)C(F)(F)C(F)(F)C(F)(F)C(F)(F)C(F)(F)CN(c1nc(S)nc(S)n1)C1CCCCC1 [Example 21] | 120
FC(F)(F)C(F)(F)C(F)(F)C(F)(F)C(F)(F)C(F)(F)CNc1nc(S)nc(S)n1 [Example 19] | 117
CCCCN(CC(F)(F)C(F)(F)C(F)(F)C(F)(F)C(F)(F)C(F)(F)C(F)(F)C(F)(F)C(F)(F)C(F)(F)F)c1nc(S)nc(S)n1 [Example 22] | 121

assay: Dipping treatment of metals: contact angle of water, silver; settings: Na salt 1×10^-3 mol/L in water, 70° C., 30 minutes

Structure (SMILES) | Contact angle [°]
FC(F)(F)C(F)(F)C(F)(F)C(F)(F)C(F)(F)C(F)(F)C(F)(F)c1ccc(Nc2nc(S)nc(S)n2)cc1 [Comparative example, reference compound] | 106
CCCCN(CC(F)(F)C(F)(F)C(F)(F)C(F)(F)C(F)(F)C(F)(F)C(F)(F)F)c1nc(S)nc(S)n1 [Example 20] | 121
FC(F)(F)C(F)(F)C(F)(F)C(F)(F)C(F)(F)C(F)(F)C(F)(F)CN(c1nc(S)nc(S)n1)C1CCCCC1 [Example 21] | 120
FC(F)(F)C(F)(F)C(F)(F)C(F)(F)C(F)(F)C(F)(F)CNc1nc(S)nc(S)n1 [Example 19] | 121
CCCCN(CC(F)(F)C(F)(F)C(F)(F)C(F)(F)C(F)(F)C(F)(F)C(F)(F)C(F)(F)C(F)(F)C(F)(F)F)c1nc(S)nc(S)n1 [Example 22] | 120

assay: Dipping treatment of metals: eluting potential from anodic polarization curve, iron; settings: Na salt 1×10^-3 mol/L, 70° C., 30 minutes, electrolyte (NaPo3)6 0.1 M

Structure (SMILES) | Eluting potential [V vs SCE]
FC(F)(F)C(F)(F)C(F)(F)C(F)(F)C(F)(F)C(F)(F)C(F)(F)c1ccc(Nc2nc(S)nc(S)n2)cc1 [Comparative example, reference compound] | 1.4
CCCCN(CC(F)(F)C(F)(F)C(F)(F)C(F)(F)C(F)(F)C(F)(F)C(F)(F)F)c1nc(S)nc(S)n1 [Example 20] | 1.6
FC(F)(F)C(F)(F)C(F)(F)C(F)(F)C(F)(F)C(F)(F)C(F)(F)CN(c1nc(S)nc(S)n1)C1CCCCC1 [Example 21] | 1.6
FC(F)(F)C(F)(F)C(F)(F)C(F)(F)C(F)(F)C(F)(F)CNc1nc(S)nc(S)n1 [Example 19] | 1.5
CCCCN(CC(F)(F)C(F)(F)C(F)(F)C(F)(F)C(F)(F)C(F)(F)C(F)(F)C(F)(F)C(F)(F)C(F)(F)F)c1nc(S)nc(S)n1 [Example 22] | 1.6

assay: Dipping treatment of metals: eluting potential from anodic polarization curve, copper; settings: Na salt 1×10^-3 mol/L, 70° C., 30 minutes, electrolyte (NaPo3)6 0.1 M

Structure (SMILES) | Eluting potential [V vs SCE]
FC(F)(F)C(F)(F)C(F)(F)C(F)(F)C(F)(F)C(F)(F)C(F)(F)c1ccc(Nc2nc(S)nc(S)n2)cc1 [Comparative example, reference compound] | 0.2
CCCCN(CC(F)(F)C(F)(F)C(F)(F)C(F)(F)C(F)(F)C(F)(F)C(F)(F)F)c1nc(S)nc(S)n1 [Example 20] | 1.9
FC(F)(F)C(F)(F)C(F)(F)C(F)(F)C(F)(F)C(F)(F)C(F)(F)CN(c1nc(S)nc(S)n1)C1CCCCC1 [Example 21] | 1.9
FC(F)(F)C(F)(F)C(F)(F)C(F)(F)C(F)(F)C(F)(F)CNc1nc(S)nc(S)n1 [Example 19] | 1.7
CCCCN(CC(F)(F)C(F)(F)C(F)(F)C(F)(F)C(F)(F)C(F)(F)C(F)(F)C(F)(F)C(F)(F)C(F)(F)F)c1nc(S)nc(S)n1 [Example 22] | 1.9

assay: Dipping treatment of metals: eluting potential from anodic polarization curve, nickel; settings: Na salt 1×10^-3 mol/L, 70° C., 30 minutes, electrolyte (NaPo3)6 0.1 M

Structure (SMILES) | Eluting potential [V vs SCE]
FC(F)(F)C(F)(F)C(F)(F)C(F)(F)C(F)(F)C(F)(F)C(F)(F)c1ccc(Nc2nc(S)nc(S)n2)cc1 [Comparative example, reference compound] | 1.6
CCCCN(CC(F)(F)C(F)(F)C(F)(F)C(F)(F)C(F)(F)C(F)(F)C(F)(F)F)c1nc(S)nc(S)n1 [Example 20] | 1.9
FC(F)(F)C(F)(F)C(F)(F)C(F)(F)C(F)(F)C(F)(F)C(F)(F)CN(c1nc(S)nc(S)n1)C1CCCCC1 [Example 21] | 1.9
FC(F)(F)C(F)(F)C(F)(F)C(F)(F)C(F)(F)C(F)(F)CNc1nc(S)nc(S)n1 [Example 19] | 1.75
CCCCN(CC(F)(F)C(F)(F)C(F)(F)C(F)(F)C(F)(F)C(F)(F)C(F)(F)C(F)(F)C(F)(F)C(F)(F)F)c1nc(S)nc(S)n1 [Example 22] | 1.9

assay: Dipping treatment of metals: eluting potential from anodic polarization curve, silver; settings: Na salt 1×10^-3 mol/L, 70° C., 30 minutes, electrolyte (NaPo3)6 0.1 M

Structure (SMILES) | Eluting potential [V vs SCE]
FC(F)(F)C(F)(F)C(F)(F)C(F)(F)C(F)(F)C(F)(F)C(F)(F)c1ccc(Nc2nc(S)nc(S)n2)cc1 [Comparative example, reference compound] | 0.5
CCCCN(CC(F)(F)C(F)(F)C(F)(F)C(F)(F)C(F)(F)C(F)(F)C(F)(F)F)c1nc(S)nc(S)n1 [Example 20] | 1.5
FC(F)(F)C(F)(F)C(F)(F)C(F)(F)C(F)(F)C(F)(F)C(F)(F)CN(c1nc(S)nc(S)n1)C1CCCCC1 [Example 21] | 1.6
FC(F)(F)C(F)(F)C(F)(F)C(F)(F)C(F)(F)C(F)(F)CNc1nc(S)nc(S)n1 [Example 19] | 1.1
CCCCN(CC(F)(F)C(F)(F)C(F)(F)C(F)(F)C(F)(F)C(F)(F)C(F)(F)C(F)(F)C(F)(F)C(F)(F)F)c1nc(S)nc(S)n1 [Example 22] | 1

assay: Tribological treatment of metals (circular cutting), GPC of film dissolved from cuttings, iron column; settings: Table 7; iron and copper columns

Structure (SMILES) | amount of film (in words) | molecular weight of the dissolved compound (in words)
FC(F)(F)C(F)(F)C(F)(F)C(F)(F)C(F)(F)C(F)(F)C(F)(F)c1ccc(Nc2nc(S)nc(S)n2)cc1 [Comparative example, reference compound] | very little | a dimer or a trimer

same assay, conditions: iron column; Na salt 5×10^-3 mol/L in water based lubricant

Structure (SMILES) | Amount of film [µg/g]
FC(F)(F)C(F)(F)C(F)(F)C(F)(F)C(F)(F)C(F)(F)C(F)(F)c1ccc(Nc2nc(S)nc(S)n2)cc1 [Comparative example, reference compound] | < 0.1
CCCCN(CC(F)(F)C(F)(F)C(F)(F)C(F)(F)C(F)(F)C(F)(F)C(F)(F)F)c1nc(S)nc(S)n1 [Example 20] | 1.6
FC(F)(F)C(F)(F)C(F)(F)C(F)(F)C(F)(F)C(F)(F)C(F)(F)CN(c1nc(S)nc(S)n1)C1CCCCC1 [Example 21] | 1.9
CCCCN(CC(F)(F)C(F)(F)C(F)(F)C(F)(F)C(F)(F)C(F)(F)C(F)(F)C(F)(F)C(F)(F)C(F)(F)F)c1nc(S)nc(S)n1 [Example 22] | 2.1
FC(F)(F)C(F)(F)C(F)(F)C(F)(F)C(F)(F)C(F)(F)C(F)(F)CNc1nc(S)nc(S)n1 [Example 23] | 1.5

same assay, conditions: iron column; film; Na salt 5×10^-3 mol/L in water based lubricant

Structure (SMILES) | Number-average molecular weight
FC(F)(F)C(F)(F)C(F)(F)C(F)(F)C(F)(F)C(F)(F)C(F)(F)c1ccc(Nc2nc(S)nc(S)n2)cc1 [Comparative example, reference compound] | 1,500
CCCCN(CC(F)(F)C(F)(F)C(F)(F)C(F)(F)C(F)(F)C(F)(F)C(F)(F)F)c1nc(S)nc(S)n1 [Example 20] | 8,200
FC(F)(F)C(F)(F)C(F)(F)C(F)(F)C(F)(F)C(F)(F)C(F)(F)CN(c1nc(S)nc(S)n1)C1CCCCC1 [Example 21] | 9,300
CCCCN(CC(F)(F)C(F)(F)C(F)(F)C(F)(F)C(F)(F)C(F)(F)C(F)(F)C(F)(F)C(F)(F)C(F)(F)F)c1nc(S)nc(S)n1 [Example 22] | 9,800
FC(F)(F)C(F)(F)C(F)(F)C(F)(F)C(F)(F)C(F)(F)C(F)(F)CNc1nc(S)nc(S)n1 [Example 23] | 3,300

assay: Tribological treatment of metals (circular cutting), GPC of film dissolved from cuttings, copper column; settings: Na salt 5×10^-3 mol/L in water based lubricant

Structure (SMILES) | Amount of film [µg/g]
FC(F)(F)C(F)(F)C(F)(F)C(F)(F)C(F)(F)C(F)(F)C(F)(F)c1ccc(Nc2nc(S)nc(S)n2)cc1 [Comparative example, reference compound] | < 0.1
CCCCN(CC(F)(F)C(F)(F)C(F)(F)C(F)(F)C(F)(F)C(F)(F)C(F)(F)F)c1nc(S)nc(S)n1 [Example 20] | 6.4
FC(F)(F)C(F)(F)C(F)(F)C(F)(F)C(F)(F)C(F)(F)C(F)(F)CN(c1nc(S)nc(S)n1)C1CCCCC1 [Example 21] | 6.9
CCCCN(CC(F)(F)C(F)(F)C(F)(F)C(F)(F)C(F)(F)C(F)(F)C(F)(F)C(F)(F)C(F)(F)C(F)(F)F)c1nc(S)nc(S)n1 [Example 22] | 7.1
FC(F)(F)C(F)(F)C(F)(F)C(F)(F)C(F)(F)C(F)(F)C(F)(F)CNc1nc(S)nc(S)n1 [Example 23] | 5.4

assay: Electrolytic polymerization treatment of metals, GPC of dissolved film, SUS 304 plate; settings: Na salt 5×10^-3 mol/L, 0.1 mA/cm^2, 10 minutes, 40° C.

Structure (SMILES) | Amount of film [μg/cm^2]
FC(F)(F)C(F)(F)C(F)(F)C(F)(F)C(F)(F)C(F)(F)C(F)(F)c1ccc(Nc2nc(S)nc(S)n2)cc1 [Comparative example, reference compound] | 0.6
CCCCN(CC(F)(F)C(F)(F)C(F)(F)C(F)(F)C(F)(F)C(F)(F)C(F)(F)F)c1nc(S)nc(S)n1 [Example 20] | 12.6
FC(F)(F)C(F)(F)C(F)(F)C(F)(F)C(F)(F)C(F)(F)C(F)(F)CN(c1nc(S)nc(S)n1)C1CCCCC1 [Example 21] | 13.2
CCCCN(CC(F)(F)C(F)(F)C(F)(F)C(F)(F)C(F)(F)C(F)(F)C(F)(F)C(F)(F)C(F)(F)C(F)(F)F)c1nc(S)nc(S)n1 [Example 22] | 13.6
FC(F)(F)C(F)(F)C(F)(F)C(F)(F)C(F)(F)C(F)(F)C(F)(F)CNc1nc(S)nc(S)n1 [Example 23] | 6.6

same assay, conditions: film, Na salt 5×10^-3 mol/L, 0.1 mA/cm^2, 10 minutes, 40° C.

Structure (SMILES) | Number-average molecular weight
FC(F)(F)C(F)(F)C(F)(F)C(F)(F)C(F)(F)C(F)(F)C(F)(F)c1ccc(Nc2nc(S)nc(S)n2)cc1 [Comparative example, reference compound] | 12,000
CCCCN(CC(F)(F)C(F)(F)C(F)(F)C(F)(F)C(F)(F)C(F)(F)C(F)(F)F)c1nc(S)nc(S)n1 [Example 20] | 340,000
FC(F)(F)C(F)(F)C(F)(F)C(F)(F)C(F)(F)C(F)(F)C(F)(F)CN(c1nc(S)nc(S)n1)C1CCCCC1 [Example 21] | 350,000
CCCCN(CC(F)(F)C(F)(F)C(F)(F)C(F)(F)C(F)(F)C(F)(F)C(F)(F)C(F)(F)C(F)(F)C(F)(F)F)c1nc(S)nc(S)n1 [Example 22] | 330,000
FC(F)(F)C(F)(F)C(F)(F)C(F)(F)C(F)(F)C(F)(F)C(F)(F)CNc1nc(S)nc(S)n1 [Example 23] | 110,000
